# Source: patent US12252488B2 (Nimbus Saturn, Inc., priority 2021, dated 2025)
# Chains of the proteins cited; added tags and fusions are not shown.
# UniProt Q92918, whole entry: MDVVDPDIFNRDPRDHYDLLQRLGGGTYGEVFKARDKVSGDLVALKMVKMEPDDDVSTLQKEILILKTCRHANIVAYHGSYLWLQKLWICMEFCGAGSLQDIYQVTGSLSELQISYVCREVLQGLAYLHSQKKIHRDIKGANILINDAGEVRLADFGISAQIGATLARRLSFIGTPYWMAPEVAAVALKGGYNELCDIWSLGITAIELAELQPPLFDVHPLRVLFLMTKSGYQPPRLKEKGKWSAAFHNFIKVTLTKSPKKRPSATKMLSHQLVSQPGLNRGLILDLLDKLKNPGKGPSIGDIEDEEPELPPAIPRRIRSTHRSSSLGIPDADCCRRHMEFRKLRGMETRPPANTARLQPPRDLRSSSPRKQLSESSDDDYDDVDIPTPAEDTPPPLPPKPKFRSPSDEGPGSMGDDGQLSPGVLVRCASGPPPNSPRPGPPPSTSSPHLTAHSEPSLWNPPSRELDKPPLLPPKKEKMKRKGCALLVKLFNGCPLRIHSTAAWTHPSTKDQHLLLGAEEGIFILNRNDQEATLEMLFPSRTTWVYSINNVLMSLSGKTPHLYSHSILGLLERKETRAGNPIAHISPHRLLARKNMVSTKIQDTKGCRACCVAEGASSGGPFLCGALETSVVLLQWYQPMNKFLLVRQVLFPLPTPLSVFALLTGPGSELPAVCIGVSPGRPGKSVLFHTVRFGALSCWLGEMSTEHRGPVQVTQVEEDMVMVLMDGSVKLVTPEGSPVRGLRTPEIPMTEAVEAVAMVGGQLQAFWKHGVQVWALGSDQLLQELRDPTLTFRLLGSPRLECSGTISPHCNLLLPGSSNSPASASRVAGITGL
# The structures given here were assigned with low confidence; some may be wrong.
# Target: HPK1 (Homo sapiens, UniProt Q92918)
# Assay: HPK1 biochemical enzyme assay (microfluidic mobility shift assay)
# Settings: read-out: HPK1 1000UMATP caliper IC50, 1000 uM (1 mM) ATP, 1.5 nM HPK1, 30 min preincubation
# Experimental: Example 33. HPK1 Biochemical Enzyme Assay
# HPK1 biochemical enzyme assay: HPK1 enzyme inhibition was measured using a microfluidic mobility shift assay. Reactions were performed in a 384-well plate, containing 1.5 nM HPK1 (Invitrogen), in assay buffer (Carna Biosciences; pH 7.4). Test compounds were titrated in ten point curves (top final assay concentration 3 μM), and preincubated with enzyme/substrate mix for 30 min prior to initiation of the reaction by addition of ATP (1 mM final concentration) and substrate (1 μM final concentration; Carna Biosciences) diluted in assay buffer supplemented by MgCl2 (final assay concentration of 5 mM). Following 60 min incubation at RT, the reaction was terminated by addition of 60 μl/well termination buffer (Carna Biosciences) and signal determination using a Caliper EZ Reader (Perkin Elmer, UK).
# The compound numbers correspond to the compound numbers in Table 1. Compounds having an activity designated as “A” provided an IC50≤100 nM; compounds having an activity designated as “B” provided an IC50>100 nM and ≤1,000 nM; compounds having an activity designated as “C” provided an IC50>1,000 nM.
row,SMILES,IC50 [nM]
1,COc1cc(-c2cc(Nc3ccc(N4CCNCC4)cn3)c3c(=O)[nH]ccc3n2)c(F)cc1C(=O)N1CCCC1,100 to 1000
2,O=c1[nH]ccc2nc(-c3ccc(OCc4ccccc4)cc3F)cc(Nc3ccc(N4CCC(O)CC4)cn3)c12,100 to 1000
3,O=C(c1ccc(-c2cc(Nc3ccc(N4CCNCC4)cn3)c3c(=O)[nH]ccc3n2)c(F)c1)N1CC2C(C1)C2(F)F (stereo not shown),> 1000
4,COc1ccc(Nc2cc(-c3ccc(NC(=O)C4CCCCC4)cc3F)nc3cc[nH]c(=O)c23)nc1,< 100
